Results on 3 molecules are retold here after patent publication US20250346659A1 (ELASMOGEN, published 2025).

Protein sequences, listed by entry. Tags and fused reporters are not part of them. Residues count along the entry.
UniProt P01375, residues 77-233: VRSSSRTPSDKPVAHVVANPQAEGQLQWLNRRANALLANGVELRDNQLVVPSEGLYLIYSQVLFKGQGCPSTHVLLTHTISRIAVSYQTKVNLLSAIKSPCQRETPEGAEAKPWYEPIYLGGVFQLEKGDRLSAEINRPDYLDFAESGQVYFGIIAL

The target of one experiment is T1, Mouse TNF-alpha (mouse, UniProt P06804 80-235).
T1 construct: also called mouse TNFα
T1 sequence (looked up): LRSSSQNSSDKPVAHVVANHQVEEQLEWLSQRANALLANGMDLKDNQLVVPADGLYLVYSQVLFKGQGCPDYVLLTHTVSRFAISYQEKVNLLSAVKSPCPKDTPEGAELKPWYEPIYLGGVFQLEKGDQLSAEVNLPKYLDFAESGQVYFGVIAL
Description: binding ELISA on mouse TNF-alpha, OD 450.

The target in experiment [1] is T2, human Tumour Necrosis Factor alpha (human, UniProt P01375 77-233).
T2 construct: Amine-coupled to the chip for BIAcore, biotinylated on streptavidin sensors for Octet, coated at 1 µg/ml for ELISA; also called hTNFα; rhTNFα
Description: binding ELISA on TNFα (Anti-TNF NAR Dimers Binding ELISA, post dialysis), absorbance at 450 nm.

Results are given in words; binding and its absence hold for the method and conditions named. Some entries that bind do so weakly or less than the wild type.

B1: TNF S17-Quad-X™ (Fc fusion)
chain: ASVNQTPRTATKETGESLTINCVLTDTHAKVFTTSWFRKNPGTTDWERMSIGGRYVESVNKGAKSFSLRIKDLTVADSATYICRAGGYLSQPRVYWDVYGAGTVLTVNGGGGSGGGGRTEPRGPTIKPCPPCKCPAPNLLGGPSVFIFPPKIKDVLMISLSPIVTCVVVDVSEDDPDVQISWFVNNVEVHTAQTQTHREDYNSTLRVVSALPIQHQDWMSGKEFKCKVNNKDLPAPIERTISKPKGSVRAPQVYVLPPPEEEMTKKQVTLTCMVTDFMPEDIYVEWTNNGKTELNYKNTEPVLDSDGSYFMYSKLRVEKKNWVERNSYSCSVVHEGLHNHHTTKSFSRTPGKGGGGSGGGGSGGGGSGGGGSGAHSASVNQTPRTATKETGESLTINCVLTDTHAKVFTTSWFRKNPGTTDWERMSIGGRYVESVNKGAKSFSLRIKDLTVADSATYICRAGGYLSQPRVYWDVYGAGTVLTVN
notes: S17, mouse IgG2a Fc and S17 in one chain; also called S17-Fc-S17; S17-Fc-S17 (Quad-X™)
Consider B1, for which the binding result in the experiment with Mouse TNF-alpha is “binds”.

B2: TNF VNAR DIMER D1-B4 (VNAR)
chain: ARVDQTPQTITKETGESLPINCVLRDSHCATSSTYWYRKKSGSTNEESISKGGRYVETVNSGSKSFSLRINDLTVEDSGTYRCASECQYGLAEYDVYGGGTVVTVNGGGGSGGGGGSGAHSARVDQTPQTITKETGESLTINCVLRDSNCALSSMYWYRKKSGSTNEESISKGGRYVETVNSGSKSFSLRINDLTVEDSGTYRCKVYIPCIDELVYMISGGTSGPIHDVYGGGTVVTVNAAAHHHHHHGAAEQKLISEEDL
As to B2, the binding entry in experiment [1] was “binds”.

B3: B4-D1 (VNAR)
chain: ARVDQTPQTITKETGESLTINCVLRDSNCALSSMYWYRKKSGSTNEESISKGGRYVETVNSGSKSFSLRINDLTVEDSGTYRCKVYIPCIDELVYMISGGTSGPIHDVYGGGTVVTVNGGGGSGGGGGSGAHSARVDQTPQTITKETGESLPINCVLRDSHCATSSTYWYRKKSGSTNEESISKGGRYVETVNSGSKSFSLRINDLTVEDSGTYRCASECQYGLAEYDVYGGGTVVTVNAAAHHHHHHGAAEQKLISEEDL
Regarding B3, the binding result in experiment [1] is given as “binds”.
